Assay results taken from the supplement of paper PMC7661543.
± gives the standard deviation of the averaged measurements. Differences between knockout arms are mostly noise.

System: ZR-75-1
Assay: relative cell number vs DMSO control (72 h) (% of DMSO); higher = less growth inhibition (more cells)
Protocol: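 QMAP-Seq: a pool of 5 breast cancer cell lines (ZR-75-1, SKBR3, HCC-38, MDA-MB-231, BT-20), each carrying 12 doxycycline-inducible Cas9 sgRNA perturbations (11 knockouts plus non-targeting sgNT), was treated with compounds for 72 h at four 10-fold doses (10 nM-10 uM or 1 nM-1 uM range). Barcodes were amplified and sequenced, and cell number was interpolated from 293T spike-in standard curves. The result is expressed as % of the median of DMSO wells. Two biological replicates.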

[1] = sgRNA knockout: sgATF3, 1000 nM
[2] = sgRNA knockout: sgATF3, 10000 nM
[3] = sgRNA knockout: sgATF4, 1000 nM
[4] = sgRNA knockout: sgATF4, 10000 nM
[5] = sgRNA knockout: sgATF6, 1000 nM
[6] = sgRNA knockout: sgATF6, 10000 nM
[7] = sgRNA knockout: sgATG7, 1000 nM
[8] = sgRNA knockout: sgATG7, 10000 nM
[9] = sgRNA knockout: sgERN1, 1000 nM
[10] = sgRNA knockout: sgERN1, 10000 nM
[11] = sgRNA knockout: sgHSF2, 1000 nM
[12] = sgRNA knockout: sgHSF2, 10000 nM
[13] = sgRNA knockout: sgNFE2L2, 10 nM
[14] = sgRNA knockout: sgNFE2L2, 100 nM
[15] = sgRNA knockout: sgNFE2L2, 1000 nM
[16] = sgRNA knockout: sgNFE2L2, 10000 nM
[17] = sgRNA knockout: sgSLC35F2, 10 nM
[18] = sgRNA knockout: sgSLC35F2, 100 nM
[19] = sgRNA knockout: sgSLC35F2, 1000 nM
[20] = sgRNA knockout: sgSLC35F2, 10000 nM
[21] = sgRNA knockout: sgXBP1, 1000 nM
[22] = sgRNA knockout: sgXBP1, 10000 nM

SMILES	relative cell number (sgRNA knockout: sgATF3, 10 nM)	relative cell number (sgRNA knockout: sgATF3, 100 nM)	relative cell number [1]	relative cell number (sgRNA knockout: sgATF4, 10 nM)	relative cell number (sgRNA knockout: sgATF4, 100 nM)	relative cell number [3]	relative cell number (sgRNA knockout: sgATF6, 10 nM)	relative cell number (sgRNA knockout: sgATF6, 100 nM)	relative cell number [5]	relative cell number (sgRNA knockout: sgATG7, 10 nM)	relative cell number (sgRNA knockout: sgATG7, 100 nM)	relative cell number [7]	relative cell number (sgRNA knockout: sgERN1, 10 nM)	relative cell number (sgRNA knockout: sgERN1, 100 nM)	relative cell number [9]	relative cell number (sgRNA knockout: sgHSF2, 10 nM)	relative cell number (sgRNA knockout: sgHSF2, 100 nM)	relative cell number [11]	relative cell number [13]	relative cell number [14]	further results
CN(C)CC[C@H](CSc1ccccc1)Nc1ccc(S(=O)(=O)NC(=O)c2ccc(N3CCN(Cc4ccccc4-c4ccc(Cl)cc4)CC3)cc2)cc1[N+](=O)[O-] [ABT737]	121 ± 40	112 ± 2.2	105 ± 2.3	97.8 ± 6.1	99.6 ± 21	132 ± 17	113 ± 45	101 ± 20	80.6 ± 57	77.2 ± 5.8	105 ± 12	92.2 ± 20	102 ± 4.2	80.2 ± 4.8	104 ± 13	121 ± 4.5	103 ± 2.4	87 ± 19	93.8 ± 5.5	109 ± 5.9	relative cell number [2]: 104 ± 29; relative cell number [4]: 66 ± 27; relative cell number [6]: 105 ± 16; relative cell number [8]: 92.6 ± 3.2; relative cell number [10]: 92 ± 12; relative cell number [12]: 105 ± 23; relative cell number [15]: 108 ± 1.3; relative cell number [16]: 134 ± 24; relative cell number [17]: 105 ± 64; relative cell number [18]: 112 ± 20; relative cell number [19]: 112 ± 10; relative cell number [20]: 75.7 ± 12; relative cell number (sgRNA knockout: sgXBP1, 10 nM): 97.1 ± 3.2; relative cell number (sgRNA knockout: sgXBP1, 100 nM): 95.6 ± 1.5; relative cell number [21]: 118 ± 26; relative cell number [22]: 119 ± 35
Cc1onc(-c2ccccc2)c1-c1ccc(S(N)(=O)=O)cc1 [Valdecoxib]	108 ± 27	123 ± 10	89 ± 7.5	107 ± 41	98.3 ± 18	106 ± 8.9	107 ± 36	98.8 ± 31	124 ± 10	104.8 ± 0.59	89.6 ± 28	109 ± 7.3	116 ± 14	92.6 ± 7	116 ± 8.8	116 ± 4	119 ± 34	98.7 ± 3.2	82.1 ± 12	97.2 ± 1.9	relative cell number [2]: 81.6 ± 21; relative cell number [4]: 115 ± 2; relative cell number [6]: 113 ± 52; relative cell number [8]: 99.6 ± 8.1; relative cell number [10]: 109 ± 8.8; relative cell number [12]: 107 ± 15; relative cell number [15]: 109 ± 16; relative cell number [16]: 97.7 ± 13; relative cell number [17]: 63.5 ± 6.7; relative cell number [18]: 83.5 ± 58; relative cell number [19]: 111 ± 5.5; relative cell number [20]: 99.5 ± 77; relative cell number (sgRNA knockout: sgXBP1, 10 nM): 80.1 ± 19; relative cell number (sgRNA knockout: sgXBP1, 100 nM): 94.9 ± 16; relative cell number [21]: 100 ± 3.2; relative cell number [22]: 90.1 ± 14
CN1C(=O)C(Cc2c[nH]c3ccccc23)NC1=S (configuration not stated) [Necrostatin1]	90.4 ± 2.5	97.8 ± 14	70.2 ± 9	78.8 ± 36	73 ± 14	54.7 ± 9	102 ± 26	64.5 ± 35	45 ± 16	99.6 ± 23	68.4 ± 2.8	56.4 ± 8.5	109.9 ± 0.42	90.5 ± 4.7	72.8 ± 15	97.3 ± 1.9	68.5 ± 11	78.5 ± 13	95.3 ± 6.7	84.5 ± 8.4	relative cell number [2]: 44.2 ± 15; relative cell number [4]: 47.9 ± 16; relative cell number [6]: 46.3 ± 9.2; relative cell number [8]: 41.3 ± 12; relative cell number [10]: 63.9 ± 14; relative cell number [12]: 52.6 ± 14; relative cell number [15]: 80.9 ± 2.2; relative cell number [16]: 55.9 ± 4.9; relative cell number [17]: 99.4 ± 8; relative cell number [18]: 52.3 ± 24; relative cell number [19]: 62.7 ± 32; relative cell number [20]: 54.5 ± 17; relative cell number (sgRNA knockout: sgXBP1, 10 nM): 89.8 ± 12; relative cell number (sgRNA knockout: sgXBP1, 100 nM): 83.5 ± 9.5; relative cell number [21]: 96.5 ± 3.9; relative cell number [22]: 57.9 ± 3.5
N#Cc1ccc(COC[C@H]2O[C@@H](n3c(NCc4ccc(Cl)c(Cl)c4)nc4c(N)ncnc43)[C@H](O)[C@@H]2O)cc1	122 ± 7.5	79.5 ± 14	104 ± 32	137 ± 10	97.2 ± 3.4	106 ± 62	126 ± 2.6	79.9 ± 5.6	76.2 ± 4.8	87.5 ± 15	66.7 ± 11	93.7 ± 5.6	114 ± 5.5	92.2 ± 9.6	100 ± 9.1	102 ± 18	103 ± 6.8	94 ± 19	115 ± 8.2	119 ± 14	relative cell number [2]: 66.6 ± 3.8; relative cell number [4]: 54 ± 13; relative cell number [6]: 49.6 ± 15; relative cell number [8]: 65.6 ± 26; relative cell number [10]: 61.5 ± 2.7; relative cell number [12]: 61.9 ± 21; relative cell number [15]: 97.7 ± 20; relative cell number [16]: 63.4 ± 8.5; relative cell number [17]: 104 ± 17; relative cell number [18]: 78.6 ± 5.9; relative cell number [19]: 108 ± 67; relative cell number [20]: 25.1 ± 7.4; relative cell number (sgRNA knockout: sgXBP1, 10 nM): 103 ± 28; relative cell number (sgRNA knockout: sgXBP1, 100 nM): 103 ± 2.9; relative cell number [21]: 93.5 ± 0.21; relative cell number [22]: 55.7 ± 14
COCC[n+]1c2c(n(Cc3cnccn3)c1C)C(=O)c1ccccc1C2=O [YM155]	30.2 ± 0.79	5.43 ± 2.5	4.23 ± 1.5	31.9 ± 4.1	10.3 ± 0.65	3.47 ± 2.1	50.5 ± 1.4	7.51 ± 2.1	3.64 ± 0.16	23.6 ± 6.6	4.3 ± 3.2	2.78 ± 2.1	53.4 ± 7.7	12.5 ± 7.1	3.32 ± 2.9	25.7 ± 4.3	7.47 ± 1.7	3.44 ± 2.1	26.5 ± 8.9	7.33 ± 2.3	relative cell number (sgRNA knockout: sgATF3, 1 nM): 113 ± 2.9; relative cell number (sgRNA knockout: sgATF4, 1 nM): 83.1 ± 11; relative cell number (sgRNA knockout: sgATF6, 1 nM): 141 ± 10; relative cell number (sgRNA knockout: sgATG7, 1 nM): 106 ± 6.8; relative cell number (sgRNA knockout: sgERN1, 1 nM): 95.3 ± 4.2; relative cell number (sgRNA knockout: sgHSF2, 1 nM): 86.8 ± 15; relative cell number (sgRNA knockout: sgNFE2L2, 1 nM): 109 ± 8.1; relative cell number [15]: 5.03 ± 0.82; relative cell number (sgRNA knockout: sgSLC35F2, 1 nM): 91.3 ± 29; relative cell number [17]: 31.1 ± 9.6; relative cell number [18]: 20.8 ± 2.6; relative cell number [19]: 9.43 ± 9; relative cell number (sgRNA knockout: sgXBP1, 1 nM): 88.2 ± 18; relative cell number (sgRNA knockout: sgXBP1, 10 nM): 35.7 ± 5.8; relative cell number (sgRNA knockout: sgXBP1, 100 nM): 4.88 ± 0.2; relative cell number [21]: 3.15 ± 1.6
COc1ccc(-c2ccc3c(N4CCOCC4)nc(N4C[C@@H](C)O[C@@H](C)C4)nc3n2)cc1CO	99.7 ± 36	135 ± 2.5	96 ± 1.1	71.6 ± 10	110 ± 11	108 ± 18	101 ± 70	132 ± 87	71.9 ± 6.7	110 ± 20	101 ± 23	72.3 ± 30	82.1 ± 24	112 ± 12	92.8 ± 14	98.2 ± 18	103 ± 13	74.5 ± 7	90.5 ± 17	85.7 ± 14	relative cell number [2]: 37 ± 2.9; relative cell number [4]: 35.6 ± 1.4; relative cell number [6]: 33.7 ± 4.2; relative cell number [8]: 25.4 ± 11; relative cell number [10]: 39.1 ± 3.2; relative cell number [12]: 31.2 ± 5.8; relative cell number [15]: 81.19 ± 0.34; relative cell number [16]: 33 ± 3.7; relative cell number [17]: 101 ± 3.1; relative cell number [18]: 123 ± 42; relative cell number [19]: 123 ± 30; relative cell number [20]: 32.5 ± 6.6; relative cell number (sgRNA knockout: sgXBP1, 10 nM): 107 ± 3.7; relative cell number (sgRNA knockout: sgXBP1, 100 nM): 95.9 ± 18; relative cell number [21]: 86 ± 4.1; relative cell number [22]: 30.8 ± 7.4
Cc1cnc(Nc2ccc(OCCN3CCCC3)cc2)nc1Nc1cccc(S(=O)(=O)NC(C)(C)C)c1	119 ± 8.5	84.5 ± 1.2	69.3 ± 39	87.7 ± 33	111 ± 27	76.6 ± 16	104 ± 57	92.1 ± 7.4	80 ± 26	98.1 ± 6.7	96.2 ± 10	74.3 ± 42	105 ± 31	108 ± 23	64.3 ± 13	95.6 ± 4.7	107 ± 19	66.2 ± 11	106 ± 41	86.3 ± 21	relative cell number [2]: 18 ± 4; relative cell number [4]: 23.7 ± 5.8; relative cell number [6]: 10.9 ± 6.7; relative cell number [8]: 17.7 ± 7.9; relative cell number [10]: 15.2 ± 0.5; relative cell number [12]: 16.9 ± 0.71; relative cell number [15]: 73.16 ± 0.61; relative cell number [16]: 11.7 ± 1.5; relative cell number [17]: 74 ± 35; relative cell number [18]: 67.3 ± 13; relative cell number [19]: 69.8 ± 25; relative cell number [20]: 23.6 ± 0.096; relative cell number (sgRNA knockout: sgXBP1, 10 nM): 90.4 ± 22; relative cell number (sgRNA knockout: sgXBP1, 100 nM): 106 ± 8.6; relative cell number [21]: 70.2 ± 6.6; relative cell number [22]: 19.15 ± 0.074
